Publication PMC6838198, “Insights into the assembly and architecture of a Staufen-mediated mRNA decay (SMD)-competent mRNP” (Nature Communications, 2019)
No constants are given. Whether binding was seen depends on the method and setting. Binding calls can cover weak binding; strength is not graded here.

Protein sequences, listed by entry. Tags and fused reporters are not part of them. Lines headed by an entry give the natural chain unless they say otherwise; changes in a name come on top.
UniProt O95793: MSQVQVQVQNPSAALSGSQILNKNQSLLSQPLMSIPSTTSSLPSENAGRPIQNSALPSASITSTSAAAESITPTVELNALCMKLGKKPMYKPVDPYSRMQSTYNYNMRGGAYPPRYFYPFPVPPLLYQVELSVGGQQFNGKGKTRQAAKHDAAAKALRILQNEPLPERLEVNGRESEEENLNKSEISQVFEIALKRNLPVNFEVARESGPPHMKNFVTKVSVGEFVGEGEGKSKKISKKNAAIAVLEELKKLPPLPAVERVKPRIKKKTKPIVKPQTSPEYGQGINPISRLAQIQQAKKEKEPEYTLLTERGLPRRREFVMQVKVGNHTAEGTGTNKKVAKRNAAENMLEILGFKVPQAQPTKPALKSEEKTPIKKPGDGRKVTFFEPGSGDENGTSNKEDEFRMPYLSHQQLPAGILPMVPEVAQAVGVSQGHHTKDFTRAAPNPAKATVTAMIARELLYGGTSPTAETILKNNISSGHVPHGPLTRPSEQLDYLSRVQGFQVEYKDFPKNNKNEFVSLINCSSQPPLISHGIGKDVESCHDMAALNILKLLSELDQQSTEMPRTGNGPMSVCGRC
UniProt Q9HAU5: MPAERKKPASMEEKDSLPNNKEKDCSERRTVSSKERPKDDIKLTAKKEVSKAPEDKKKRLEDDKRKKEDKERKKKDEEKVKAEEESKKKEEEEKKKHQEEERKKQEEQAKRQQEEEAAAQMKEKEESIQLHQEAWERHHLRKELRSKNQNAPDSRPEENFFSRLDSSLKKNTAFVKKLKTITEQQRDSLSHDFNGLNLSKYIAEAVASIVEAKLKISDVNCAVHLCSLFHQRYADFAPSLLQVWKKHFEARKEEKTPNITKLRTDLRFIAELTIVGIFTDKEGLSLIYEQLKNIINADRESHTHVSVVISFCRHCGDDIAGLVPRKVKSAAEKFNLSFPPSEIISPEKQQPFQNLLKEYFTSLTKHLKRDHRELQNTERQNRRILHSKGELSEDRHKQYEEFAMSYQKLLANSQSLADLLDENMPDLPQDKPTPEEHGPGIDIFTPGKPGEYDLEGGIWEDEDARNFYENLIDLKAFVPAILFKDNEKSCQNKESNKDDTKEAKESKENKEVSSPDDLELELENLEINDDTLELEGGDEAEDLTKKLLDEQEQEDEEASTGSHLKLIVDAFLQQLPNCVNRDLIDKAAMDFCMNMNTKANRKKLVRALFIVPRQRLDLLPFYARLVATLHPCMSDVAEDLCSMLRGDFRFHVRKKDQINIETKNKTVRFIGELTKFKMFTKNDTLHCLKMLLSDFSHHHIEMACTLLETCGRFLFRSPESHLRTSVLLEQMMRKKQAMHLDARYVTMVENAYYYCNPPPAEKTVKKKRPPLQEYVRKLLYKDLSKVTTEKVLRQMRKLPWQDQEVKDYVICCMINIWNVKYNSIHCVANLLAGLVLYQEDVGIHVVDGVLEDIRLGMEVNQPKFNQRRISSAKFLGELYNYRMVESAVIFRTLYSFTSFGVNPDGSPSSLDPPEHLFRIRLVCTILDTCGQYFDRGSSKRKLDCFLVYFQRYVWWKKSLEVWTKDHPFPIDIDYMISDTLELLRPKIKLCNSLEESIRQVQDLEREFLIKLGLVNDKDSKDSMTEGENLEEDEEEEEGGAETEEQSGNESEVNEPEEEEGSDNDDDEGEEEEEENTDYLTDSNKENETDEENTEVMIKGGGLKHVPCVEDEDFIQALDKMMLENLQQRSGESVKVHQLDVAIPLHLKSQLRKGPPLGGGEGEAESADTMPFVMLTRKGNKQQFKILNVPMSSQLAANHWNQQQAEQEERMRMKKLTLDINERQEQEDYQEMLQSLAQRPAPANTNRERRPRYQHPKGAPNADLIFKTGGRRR

Biological target: GST-Stau1, full length (human) (UniProt O95793)
Assay: pull-down; GST-tagged bait and prey mixed in equal amounts, 4 °C 16 h, Glutathione Sepharose; 20 mM HEPES pH 7.5, 150 mM NaCl, 10% glycerol, 0.1% NP-40; eluted with 20 mM glutathione, SDS-PAGE and Coomassie; bands quantified with ImageJ; both purified

binding: binds
Substance: UPF2-MIF4G3 domain (from UniProt Q9HAU5) (domain or fragment)
